Results are given in words; binding and its absence hold for the method and conditions named. Some results given as binding are weak or reduced against the parent protein; the word gives no strength. Tags and fused reporters may be left off the sequences shown.
Molecular target: T1, porcine relaxin (porcine) (UniProt P01348)
T1 sequence (looked up) 1: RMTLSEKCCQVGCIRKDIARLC
T1 sequence (looked up) 2: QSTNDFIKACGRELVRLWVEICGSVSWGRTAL
Assay: cross-linking with disuccinimidyl suberate in PBS, SDS-PAGE, blot with anti-relaxin antibody

B1: 7BP, soluble ectodomain of LGR7 tagged with 6-His and M1 epitopes (receptor, UniProt Q9HBX9 23-402, looked up, not shown: small tags and cut ends)
chain: QDVKCSLGYFPCGNITKCLPQLLHCNGVDDCGNQADEDNCGDNNGWSLQFDKYFASYYKMTSQYPFEAETPECLVGSVPVQCLCQGLELDCDETNLRAVPSVSSNVTAMSLQWNLIRKLPPDCFKNYHDLQKLYLQNNKITSISIYAFRGLNSLTKLYLSHNRITFLKPGVFEDLHRLEWLIIEDNHLSRISPPTFYGLNSLILLVLMNNVLTRLPDKPLCQHMPRLHWLDLEGNHIHNLRNLTFISCSNLTVLVMRKNKINHLNENTFAPLQKLDELDLGSNKIENLPPLIFKDLKELSQLNLSYNPIQKIQANQFDYLVKLKSLSLEGIEISNIQQRMFRPLMNLSHIYFKKFQYCGYAPHVRSCKPNTDGISSLENL
- binding: binds

Source: patent publication US20030088884A1
